Measurements reported in PubChem BioAssay AID1259424 (University of Nebraska Medical Center, 2018)
Screen: 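Rank knockdowns across the genome by resemblance to the KSR1 depletion profile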 (primary screen). Cells: human HCT116 colon cancer cells. Reagents: siRNA pool against human genes, 50 nM. Measurement: 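Log2 levels of six mRNAs (branched-DNA multiplex), adjusted by two reference genes and the non-targeting median, then scored against the average KSR1 knockdown pattern as Pearson r and euclidean distance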. Direction: mean correlation with KSR1 profile and KSR1 correlation: higher = expression change more like KSR1 knockdown; mean distance from KSR1 profile: higher = expression change less like KSR1 knockdown.
The deposit covers about 14,000 reagents; this is a part drawn at random. 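Higher correlation or smaller distance means closer resemblance to KSR1 loss; control wells, including KSR1 knockdowns, recur on many plates.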 Further read-outs or replicates are left out here. The record does not give: the time to read-out.

| gene knocked down | mean correlation with KSR1 profile | mean distance from KSR1 profile | KSR1 correlation, replicate 1 |
| --- | --- | --- | --- |
| DDX39A | -0.0954 | 2.2 | -0.0512 |
| RHBDD1 | 0.918 | 2.03 | 0.866 |
| PPP1R12A | -0.106 | 2.36 | -0.183 |
| RMDN3 | -0.389 | 2.26 | -0.186 |
| LECT2 | 0.438 | 1.44 | 0.249 |
| PSMA3 | -0.154 | 5.7 | -0.0929 |
| TOMM34 | 0.0831 | 1.78 | 0.193 |
| CHST3 | -0.204 | 2.19 | -0.343 |
| CCNB1 | -0.0997 | 1.66 | -0.156 |
| MAPKAPK2 | 0.244 | 2.23 | 0.349 |
| HBQ1 | 0.385 | 1.29 | 0.273 |
| BAALC | 0.864 | 0.833 | 0.862 |
| GPR3 | 0.305 | 2.07 | 0.419 |
| MYCBPAP | 0.881 | 2.78 | 0.855 |
| SPATA9 | 0.78 | 0.991 | 0.668 |
| PGA5 | 0.0577 | 1.66 | 0.247 |
| GCM2 | 0.469 | 1.57 | 0.399 |
| FCER1G | -0.429 | 3.22 | -0.433 |
| HS3ST1 | 0.565 | 1.35 | 0.391 |
| GPR63 | 0.756 | 2.72 | 0.709 |
| KCNK12 | -0.741 | 2.96 | -0.757 |
| KLF7 | -0.0141 | 2.03 | 0.092 |
| PRIM2 | 0.625 | 1.62 | 0.601 |
| AADAC | 0.917 | 1.61 | 0.852 |
| STK24 | 0.501 | 1.44 | 0.724 |
| HIKESHI | 0.0209 | 5.62 | 0.311 |
| GARNL3 | 0.792 | 2.44 | 0.748 |

Next part (3 carried over from the part before).
| gene knocked down | mean correlation with KSR1 profile | mean distance from KSR1 profile | KSR1 correlation, replicate 1 |
| --- | --- | --- | --- |
| STK24 | 0.501 | 1.44 | 0.724 |
| HIKESHI | 0.0209 | 5.62 | 0.311 |
| GARNL3 | 0.792 | 2.44 | 0.748 |
| GYS1 | 0.513 | 1.11 | 0.55 |
| RUVBL2 | -0.32 | 2.9 | -0.385 |
| SP2 | -0.608 | 5.41 | -0.67 |
| METTL25 | 0.836 | 0.902 | 0.64 |
| KRTAP5-9 | 0.072 | 2.3 | -0.173 |
| LARP1 | 0.159 | 4.02 | 0.151 |
| SPEF1 | 0.124 | 1.48 | -0.299 |
| IL12RB2 | -0.685 | 2.43 | -0.755 |
| CYB5B | 0.344 | 2.42 | 0.194 |
| FGF18 | 0.0777 | 2.37 | 0.0258 |
| ABHD14B | 0.206 | 5.19 | 0.199 |
| ZMPSTE24 | -0.472 | 2.1 | -0.341 |
| CTTNBP2NL | 0.335 | 2 | 0.303 |
| CENPB | 0.332 | 1.41 | 0.335 |
| KCNJ3 | 0.757 | 1.22 | 0.705 |
| ELOA | 0.186 | 1.79 | 0.203 |
| CACNG2 | -0.201 | 3.1 | -0.112 |
| OR51E2 | 0.885 | 1.6 | 0.883 |
| ENG | 0.243 | 1.82 | 0.392 |
| FGF4 | -0.241 | 1.9 | -0.13 |
| PRDM4 | 0.362 | 1.72 | 0.536 |
| KRTAP3-2 | 0.515 | 3.11 | 0.525 |
| TPK1 | 0.725 | 2.73 | 0.663 |
